Source: paper PMC5291280
No constants are given. Whether binding was seen depends on the method and setting. Binding seen in cells or lysates may run through a third protein. These calls come from enrichment with a bait or labelling near it, and not all partners need be listed. Sequences can lack the tags named with a protein.

Sequences of proteins named here, by UniProt entry; tags and fusion partners are left off.
UniProt P06730: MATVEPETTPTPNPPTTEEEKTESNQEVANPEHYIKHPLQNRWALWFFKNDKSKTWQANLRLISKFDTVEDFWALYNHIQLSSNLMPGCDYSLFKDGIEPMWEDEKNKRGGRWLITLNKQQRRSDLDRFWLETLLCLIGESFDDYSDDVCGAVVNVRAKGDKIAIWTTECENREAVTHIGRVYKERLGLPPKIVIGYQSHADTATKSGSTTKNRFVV
UniProt Q8ND56: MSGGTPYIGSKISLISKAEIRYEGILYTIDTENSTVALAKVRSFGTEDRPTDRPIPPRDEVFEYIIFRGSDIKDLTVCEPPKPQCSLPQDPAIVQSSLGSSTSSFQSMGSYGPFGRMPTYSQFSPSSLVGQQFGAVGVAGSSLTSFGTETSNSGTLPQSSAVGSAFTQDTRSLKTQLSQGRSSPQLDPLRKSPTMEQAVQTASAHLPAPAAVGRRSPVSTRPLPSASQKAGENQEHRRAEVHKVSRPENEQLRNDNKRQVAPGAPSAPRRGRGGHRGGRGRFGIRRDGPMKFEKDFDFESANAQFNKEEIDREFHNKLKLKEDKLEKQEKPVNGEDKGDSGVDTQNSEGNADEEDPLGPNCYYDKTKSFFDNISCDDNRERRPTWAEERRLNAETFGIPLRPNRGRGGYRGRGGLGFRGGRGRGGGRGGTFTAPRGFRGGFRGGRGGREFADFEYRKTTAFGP
UniProt O60573: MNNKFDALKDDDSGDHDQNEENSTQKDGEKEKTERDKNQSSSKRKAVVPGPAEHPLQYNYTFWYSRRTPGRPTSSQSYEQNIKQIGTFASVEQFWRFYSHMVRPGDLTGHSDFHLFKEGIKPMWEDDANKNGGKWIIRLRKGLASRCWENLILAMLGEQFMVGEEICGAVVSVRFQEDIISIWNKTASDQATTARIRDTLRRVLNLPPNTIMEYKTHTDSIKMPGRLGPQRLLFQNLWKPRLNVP
UniProt Q96F86: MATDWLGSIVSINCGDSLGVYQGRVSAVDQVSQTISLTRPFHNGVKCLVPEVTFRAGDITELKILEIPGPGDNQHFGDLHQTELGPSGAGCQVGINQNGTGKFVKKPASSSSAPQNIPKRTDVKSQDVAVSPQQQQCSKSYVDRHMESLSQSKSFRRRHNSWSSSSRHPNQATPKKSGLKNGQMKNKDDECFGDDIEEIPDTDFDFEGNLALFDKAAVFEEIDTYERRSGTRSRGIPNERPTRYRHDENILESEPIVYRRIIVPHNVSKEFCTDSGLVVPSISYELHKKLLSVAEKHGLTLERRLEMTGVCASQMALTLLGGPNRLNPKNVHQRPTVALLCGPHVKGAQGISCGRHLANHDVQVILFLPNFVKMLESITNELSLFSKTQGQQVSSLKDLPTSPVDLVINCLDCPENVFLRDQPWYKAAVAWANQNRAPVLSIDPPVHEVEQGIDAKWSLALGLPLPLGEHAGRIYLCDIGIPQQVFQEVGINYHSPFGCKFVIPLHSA

T1: FLAG-4E-T (4E-Transporter, full length) (human) (UniProt Q9NRA8)
T1 sequence: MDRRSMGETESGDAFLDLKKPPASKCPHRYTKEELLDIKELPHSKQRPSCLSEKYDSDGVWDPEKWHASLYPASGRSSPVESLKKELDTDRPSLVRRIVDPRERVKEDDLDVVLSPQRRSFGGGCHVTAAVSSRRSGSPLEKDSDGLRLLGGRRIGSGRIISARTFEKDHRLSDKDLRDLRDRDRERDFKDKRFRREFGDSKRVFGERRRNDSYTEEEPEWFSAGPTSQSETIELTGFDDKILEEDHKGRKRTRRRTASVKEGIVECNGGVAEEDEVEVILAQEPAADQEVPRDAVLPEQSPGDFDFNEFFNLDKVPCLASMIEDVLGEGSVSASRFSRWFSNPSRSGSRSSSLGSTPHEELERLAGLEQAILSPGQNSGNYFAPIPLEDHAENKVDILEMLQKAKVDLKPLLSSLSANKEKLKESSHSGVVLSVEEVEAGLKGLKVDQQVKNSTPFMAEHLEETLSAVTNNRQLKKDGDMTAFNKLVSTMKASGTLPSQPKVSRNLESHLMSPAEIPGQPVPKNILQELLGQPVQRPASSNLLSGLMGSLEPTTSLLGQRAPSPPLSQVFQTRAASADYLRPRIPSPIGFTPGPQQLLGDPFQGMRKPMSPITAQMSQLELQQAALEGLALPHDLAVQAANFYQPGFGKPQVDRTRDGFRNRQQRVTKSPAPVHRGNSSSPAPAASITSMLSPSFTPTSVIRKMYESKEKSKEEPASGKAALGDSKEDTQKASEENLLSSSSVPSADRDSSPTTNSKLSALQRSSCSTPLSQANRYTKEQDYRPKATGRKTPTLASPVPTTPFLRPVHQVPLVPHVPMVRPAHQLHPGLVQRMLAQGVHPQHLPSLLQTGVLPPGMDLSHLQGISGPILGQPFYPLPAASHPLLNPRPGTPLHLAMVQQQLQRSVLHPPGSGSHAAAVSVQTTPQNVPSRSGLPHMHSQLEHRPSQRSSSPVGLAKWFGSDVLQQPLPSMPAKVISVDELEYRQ

B1: PAT1B, endogenous (protein, UniProt Q86TB9 1-770)
chain: MFRYESLEDCPLDEDEDAFQGLGEEDEEIDQFNDDTFGSGAVDDDWQEAHERLAELEEKLPVAVNEQTGNGERDEMDLLGDHEENLAERLSKMVIENELEDPAIMRAVQTRPVLQPQPGSLNSSIWDGSEVLRRIRGPLLAQEMPTVSVLEYALPQRPPQGPEDDRDLSERALPRRSTSPIIGSPPVRAVPIGTPPKQMAVPSFTQQILCPKPVHVRPPMPPRYPAPYGERMSPNQLCSVPNSSLLGHPFPPSVPPVLSPLQRAQLLGGAQLQPGRMSPSQFARVPGFVGSPLAAMNPKLLQGRVGQMLPPAPGFRAFFSAPPSATPPPQQHPPGPGPHLQNLRSQAPMFRPDTTHLHPQHRRLLHQRQQQNRSQHRNLNGAGDRGSHRSSHQDHLRKDPYANLMLQREKDWVSKIQMMQLQSTDPYLDDFYYQNYFEKLEKLSAAEEIQGDGPKKERTKLITPQVAKLEHAYKPVQFEGSLGKLTVSSVNNPRKMIDAVVTSRSEDDETKEKQVRDKRRKTLVIIEKTYSLLLDVEDYERRYLLSLEEERPALMDDRKHKICSMYDNLRGKLPGQERPSDDHFVQIMCIRKGKRMVARILPFLSTEQAADILMTTARNLPFLIKKDAQDEVLPCLLSPFSLLLYHLPSVSITSLLRQLMNLPQSAATPALSNPHLTAVLQNKFGLSLLLILLSRGEDLQSSDPATESTQNNQWTEVMFMATRELLRIPQAALAKPISIPTNLVSLFSRYVDRQKLNLLETKLQLVQGIR

Each molecule was assayed against T1, FLAG-4E-T (4E-Transporter, full length) (human) (assay: affinity purification with mass spectrometry; FLAG-4E-T or empty vector in HEK293T; anti-M2 affinity gel, eluted with FLAG peptide, SDS-PAGE slices, GELC/MS/MS; two independent experiments).
In the case of “eIF4E1, endogenous (from UniProt P06730 1-217)”, the binding is reported as “binds”.
“LSM14A, endogenous (from UniProt Q8ND56 1-463)” was tested, and the binding was “binds”.
With “eIF4E2, endogenous (from UniProt O60573 1-245)” the binding was “binds”.
In the case of “EDC3, endogenous (from UniProt Q96F86 1-508)”, the binding is reported as “binds weakly”.
B1 was tested, and the binding was “binds”.
